± gives the standard deviation of the averaged measurements. The list shows a part of the results. These are raw signals, not scaled to a control.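 In this assay, LPS from bacteria induces microglia-mediated neuronal death in a neuron–microglia–astrocyte co-culture, a model of inflammatory neurodegeneration. Compounds were compared against same-plate DMSO vehicle wells, with the SYK inhibitor BAY61-3606 as reference neuroprotective control.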
Tested on: rat primary cerebellar neuron-glia coculture
Assay: live neuron count (NeuO+) per image field (cells per field); higher = more surviving neurons
Conditions: LPS 0 ng/mL; 1 µM; treatment time 3 days
Procedure: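 Primary rat (P3-7) cerebellar neuron-glia cocultures in 384-well plates were treated at DIV7 with 1 uM compound, then with or without 100 ng/mL LPS 30 min later, for 3 days. At DIV10 live cells were stained with Hoechst 33342, NeuO (live neurons), IB4-AF594 (microglia) and DRAQ7 (necrotic cells) and imaged at 10x (4 fields per well, IN Cell Analyzer 6000). Cells were classified with Cellpose/CellProfiler plus a Random Trees classifier. Values are per-well mean counts per image field (raw, not min-max normalised) and the median microglial FormFactor per image. Three technical replicates per repeat across 4 biological repeats; DMSO and BAY61-3606 serve as controls.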

Row | Compound | live neuron count
1 | O=c1[nH]c(=O)n([C@H]2C[C@H](O)[C@@H](CO)O2)cc1F | 2650 ± 490
2 | Cc1ccsc1C(=CCCN1CCC[C@@H](C(=O)O)C1)c1sccc1C | 2730 ± 450
3 | CC(=O)O[C@]1(C(C)=O)CC[C@H]2[C@@H]3C[C@H](C)C4=CC(=O)CC[C@]4(C)[C@H]3CC[C@@]21C | 2690 ± 470
4 | CC(C)(c1ccc(O)cc1)c1ccc(O)cc1 | 2630 ± 420
5 | COc1ccc(-n2nc(C(N)=O)c3c2C(=O)N(c2ccc(N4CCCCC4=O)cc2)CC3)cc1 | 2590 ± 490
6 | NC[C@H](O)c1ccc(O)c(O)c1 | 2660 ± 450
7 | Clc1ccc(-c2nc3sccn3c2/C=N/OCc2ccc(Cl)c(Cl)c2)cc1 | 2750 ± 540
8 | CNC[C@H](O)c1ccc(O)c(O)c1 | 2650 ± 490
9 | CC[C@@H]1[C@@H](C)[C@H](Nc2ccccc2)c2ccccc2N1C(=O)c1ccc(Br)cc1 | 2470 ± 780
10 | C#C[C@]1(O)CC[C@H]2[C@@H]3CCc4cc(O)ccc4[C@H]3CC[C@@]21C | 2410 ± 690
11 | CCOC(=O)c1c(NC(=O)Cc2ccccc2)sc2c1CCN(C(=O)OCC)C2 | 2680 ± 410
12 | COc1cc(OC2CCN(C)CC2)ccc1Nc1ncc2c(n1)n(C1CCCC1)c(=O)n2C | 2720 ± 320
13 | O=C(c1cc(Cc2n[nH]c(=O)c3ccccc23)ccc1F)N1CCN(C(=O)C2CC2)CC1 | 2790 ± 420
14 | CCN(CC)c1ccc(NC(=O)c2c(-c3c(Cl)cccc3Cl)noc2C)cc1 | 2640 ± 550
15 | CC[C@H]1[C@@H](O)[C@@H]2[C@H](CC[C@]3(C)[C@@H]([C@H](C)CCC(=O)O)CC[C@@H]23)[C@@]2(C)CC[C@@H](O)C[C@@H]12 | 2700 ± 340
16 | CCn1c2ccccc2c2cc(NC(=O)N3CCOCC3)ccc21 | 829 ± 440
17 | O=C(c1ccc(C(=O)N2CCC(N3CCCC3)CC2)c(Nc2ccccc2)c1)N1CCC(N2CCCC2)CC1 | 2600 ± 470
18 | O=C(O)c1cc(-c2ccc(Cl)cc2)ncn1 | 2700 ± 550
19 | C/C(=N\NC(=O)c1cccc(S(=O)(=O)N2CCOCC2)c1)c1ccccc1O | 2610 ± 500
20 | Cc1nc(-c2ccccc2)sc1C(=O)Nc1ccc(S(N)(=O)=O)cc1 | 2680 ± 430

Same assay, conditions: LPS 100 ng/mL; 1 µM; treatment time 3 days

Row | Compound | live neuron count
21 | O=c1[nH]c(=O)n([C@H]2C[C@H](O)[C@@H](CO)O2)cc1F | 701 ± 600
22 | Cc1ccsc1C(=CCCN1CCC[C@@H](C(=O)O)C1)c1sccc1C | 885 ± 680
23 | CC(=O)O[C@]1(C(C)=O)CC[C@H]2[C@@H]3C[C@H](C)C4=CC(=O)CC[C@]4(C)[C@H]3CC[C@@]21C | 2450 ± 830
24 | CC(C)(c1ccc(O)cc1)c1ccc(O)cc1 | 248 ± 230
25 | COc1ccc(-n2nc(C(N)=O)c3c2C(=O)N(c2ccc(N4CCCCC4=O)cc2)CC3)cc1 | 190 ± 220
26 | NC[C@H](O)c1ccc(O)c(O)c1 | 2400 ± 480
27 | Clc1ccc(-c2nc3sccn3c2/C=N/OCc2ccc(Cl)c(Cl)c2)cc1 | 431 ± 430
28 | CNC[C@H](O)c1ccc(O)c(O)c1 | 2410 ± 590
29 | CC[C@@H]1[C@@H](C)[C@H](Nc2ccccc2)c2ccccc2N1C(=O)c1ccc(Br)cc1 | 275 ± 250
30 | C#C[C@]1(O)CC[C@H]2[C@@H]3CCc4cc(O)ccc4[C@H]3CC[C@@]21C | 288 ± 380
31 | CCOC(=O)c1c(NC(=O)Cc2ccccc2)sc2c1CCN(C(=O)OCC)C2 | 157 ± 140
32 | COc1cc(OC2CCN(C)CC2)ccc1Nc1ncc2c(n1)n(C1CCCC1)c(=O)n2C | 76.7 ± 40
33 | O=C(c1cc(Cc2n[nH]c(=O)c3ccccc23)ccc1F)N1CCN(C(=O)C2CC2)CC1 | 314 ± 280
34 | CCN(CC)c1ccc(NC(=O)c2c(-c3c(Cl)cccc3Cl)noc2C)cc1 | 364 ± 350
35 | CC[C@H]1[C@@H](O)[C@@H]2[C@H](CC[C@]3(C)[C@@H]([C@H](C)CCC(=O)O)CC[C@@H]23)[C@@]2(C)CC[C@@H](O)C[C@@H]12 | 299 ± 400
36 | CCn1c2ccccc2c2cc(NC(=O)N3CCOCC3)ccc21 | 450 ± 340
37 | O=C(c1ccc(C(=O)N2CCC(N3CCCC3)CC2)c(Nc2ccccc2)c1)N1CCC(N2CCCC2)CC1 | 425 ± 500
38 | O=C(O)c1cc(-c2ccc(Cl)cc2)ncn1 | 270 ± 120
39 | C/C(=N\NC(=O)c1cccc(S(=O)(=O)N2CCOCC2)c1)c1ccccc1O | 418 ± 740
40 | Cc1nc(-c2ccccc2)sc1C(=O)Nc1ccc(S(N)(=O)=O)cc1 | 533 ± 800

Source: the supplement of paper PMC10973195
